Experimental data as given in PubChem BioAssay AID2685 (National Center for Advancing Translational Sciences (NCATS), 2010).
The other results are listed elsewhere or left out. These are further read-outs of the screen, such as a control signal, another cell line or another target. No call is given for them. Compounds called inactive in the main read-out are mostly missing here. The note in brackets gives the kind of curve behind each potency; many fits are weak.

Experiment: qHTS Assay for Lipid Storage Modulators in Drosophila S3 Cells;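 on cell number change: cells counted by Cell Tracker Red CMTPX staining in the red channel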
Details: BODIPY lipid droplet fluorescence, 18-24 h; for cell number change: measured here: cell count max response, cells fed with added oleic acid
Procedure, shortened: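 Drosophila S3 cells got compounds at several concentrations plus oleic acid (400 uM solution). Laser-scanning cytometry with 488 nm excitation read lipid droplets at 500-530 nm and cells at 575-640 nm. Percent activity was relative to 20 uM Triacsin C.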

[1] = measured here: lipid fluorescence (Fed channel) AC50, cells fed with added oleic acid
[2] = measured here: cell number channel AC50, cells fed with added oleic acid

Compound: COc1ccc(NC(=S)N(CCCN2CCCC2)Cc2cccs2)cc1
- cell number change: 15.9%
- AC50 [1]: 0.0651 µM [falling, full curve]

Compound: O=C(COc1ccccc1)NCCS(=O)(=O)N1CCN(c2ccccc2)CC1
- cell number change: 72.1%
- AC50 [2]: 16.4 µM [rising, partial curve]

Compound: COc1cc(C2NC(=O)NC(C)=C2C(=O)OCc2ccccc2)ccc1O (configuration not stated)
- cell number change: -22.3%

Compound: CC(C)(CNS(=O)(=O)c1ccc2ccccc2c1)N1CCOCC1
- cell number change: 5%

Compound: CC12CCC(=O)N1C(C(=O)Nc1nnc(SCc3ccccc3F)s1)CS2 (configuration not stated)
- cell number change: -11.4%
- AC50 [1]: 16.4 µM [falling, single point]

Compound: CCOC(=O)N1CCN(c2c(N3CCN(c4ccccc4F)CC3)c(=O)c2=O)CC1
- cell number change: 11.8%
- AC50 [1]: 0.103 µM [rising, full curve, poor fit]

Compound: CCOc1ccccc1C(=O)Nc1ccc(-n2nncc2C(C)(C)C)cc1
- cell number change: 19.9%
- AC50 [2]: 1.64 µM [rising, partial curve, poor fit]

Compound: COc1cccc(CNC(=O)COC(=O)CCc2cc(OC)c(OC)c(OC)c2)c1
- cell number change: 2.68%

Compound: O=C(NNc1c2ccccc2nc2ccccc12)c1ccc(Cl)cc1
- cell number change: -75.4%

Compound: Cc1ccc(NC(=O)CCCc2ccccc2)nc1
- cell number change: 1.28%

Compound: O=C(Nc1ccc2sccc2c1)c1cccc(N2C(=O)CCC2=O)c1
- cell number change: -95.7%
- AC50 [1]: 18.4 µM [falling, partial curve]

Compound: CCOc1ccc(S(=O)(=O)NCc2ccccn2)cc1NC(=O)c1ccccc1F
- cell number change: 112%
- AC50 [2]: 29.1 µM [rising, single point]
- AC50 [1]: 0.366 µM [falling, full curve]

Compound: CCc1ccccc1NS(=O)(=O)c1ccc2[nH]cc(C(=O)NC3CCCC3)c(=O)c2c1
- cell number change: 12.8%

Compound: CC(=O)c1cccc(NC(=O)C2CCN(C(=O)c3ccccc3Cl)CC2)c1
- cell number change: 17.9%
- AC50 [1]: 3.66 µM [rising, full curve, poor fit]

Compound: O=C(COC(=O)c1ccc(Cl)c(S(=O)(=O)N2CCOCC2)c1)NCc1ccco1
- cell number change: 12%

Compound: CCN(CC)c1ccc(NC2=C(Cl)C(=O)c3ccccc3C2=O)cc1
- cell number change: -17.9%
- AC50 [2]: 0.206 µM [falling, full curve, poor fit]
- AC50 [1]: 0.103 µM [falling, full curve, poor fit]

Compound: Cc1cc(C)c(-n2nnnc2SC(C)C)c(C)c1
- AC50 [2]: 6.51 µM [rising, single point]
- AC50 [1]: 5.17 µM [rising, single point]

Compound: COC(=O)COc1cc(OCC(=O)OC)c2c(-c3ccccc3)cc(=O)oc2c1
- cell number change: -17.1%

Compound: COC(=O)c1cn(C(=O)c2ccco2)c2ccccc12
- cell number change: 6.99%
- AC50 [1]: 0.00461 µM [falling, full curve, poor fit]

Compound: C=CCn1c(-c2ccc(S(=O)(=O)N3CCOCC3)cc2)csc1=Nc1ccccc1
- cell number change: -40.4%
- AC50 [2]: 29.1 µM [falling, partial curve, poor fit]
- AC50 [1]: 29.1 µM [falling, single point]

Compound: CCOc1ccc2nc(SCC(=O)NC(=O)C(C)C)sc2c1
- cell number change: -28.1%
- AC50 [1]: 7.31 µM [falling, partial curve, poor fit]

Compound: CCOC(=O)C1CCN(C(=O)/C=C/c2ccc(OC)cc2)CC1
- cell number change: 14.1%
- AC50 [1]: 5.8 µM [falling, partial curve]

Compound: Cc1cc(C)nc(SCC(=O)NCc2ccco2)n1
- cell number change: 1.56%
- AC50 [1]: 0.0058 µM [falling, full curve, poor fit]

Compound: O=C(O)CC1=C(c2ccc(F)cc2)CCC1=O
- cell number change: 7.7%
- AC50 [2]: 6.51 µM [rising, single point]
- AC50 [1]: 0.0164 µM [falling, full curve]

Compound: COc1ccc(C2/C=C\CN(C(=O)Nc3ccc(C(F)(F)F)cc3)CC(=O)N2Cc2ccc(F)cc2)cc1 (configuration not stated)
- cell number change: -27.7%
- AC50 [1]: 29.1 µM [falling, single point]

Compound: C/C(N)=C(/C#N)C(=O)COC(=O)c1cc(-c2cccc(Br)c2)nc2ccccc12
- cell number change: -4.01%
- AC50 [2]: 2.31 µM [falling, single point]

Compound: Cc1cc(C)n(C(=O)c2ccc(S(=O)(=O)N3CCCC3)cc2)n1
- cell number change: -4.53%
- AC50 [1]: 0.146 µM [falling, full curve]

Compound: CCOc1c2ccc(C(=O)NC3CCCc4ccccc43)cc2nn1CC (configuration not stated)
- cell number change: 53.5%
- AC50 [2]: 5.8 µM [rising, full curve]
- AC50 [1]: 4.61 µM [rising, partial curve]

Compound: CCC(=O)c1ccc2ncccc2c1
- cell number change: -59.5%
- AC50 [2]: 29.1 µM [falling, single point]
- AC50 [1]: 2.91 µM [rising, single point]

Compound: Cc1nnc(-c2cnn(C)c2N)n1CCCN(C)C
- cell number change: -7.73%

Compound: O=C(Nc1ccccc1)C1=C[C@H](c2coc3ccccc3c2=O)C[C@H](OCc2ccc(CO)cc2)O1
- cell number change: 0.927%
- AC50 [1]: 18.4 µM [falling, single point]

Compound: Cc1cccc(OC(C)c2ccnc3nc(/N=C/N(C)C)nn23)c1 (configuration not stated)
- cell number change: 5.44%
- AC50 [1]: 29.1 µM [rising, single point]

Compound: CC/C(=N\NC(=O)c1ccncc1)C12CC3CC(CC(C3)C1)C2
- cell number change: -17.2%
- AC50 [1]: 0.13 µM [falling, full curve, poor fit]

Compound: O=c1[nH]c2ccccc2nc1C(F)(F)C(F)F
- cell number change: 19.9%
- AC50 [2]: 0.0731 µM [rising, full curve, poor fit]
- AC50 [1]: 0.092 µM [rising, full curve]

Compound: CCOc1ccc(NC(=O)NCCCN2CCCC2)cc1
- cell number change: -59.4%
- AC50 [2]: 25.9 µM [falling, partial curve, poor fit]

Compound: O=C(NCCN1CCOCC1)c1ccccc1N1C(=O)[C@@H]2Cc3c([nH]c4ccccc34)C(c3ccccc3)N2C1=O (some centres not stated)
- cell number change: 0.491%
- AC50 [1]: 0.092 µM [rising, full curve, poor fit]

Compound: Cc1cccc(NC(=O)CSCC(=O)Nc2cc(Cl)ccc2N2CCN(C)CC2)c1
- cell number change: 34.6%

Compound: CCC1(C)Cc2c(sc3nnn(CC(=O)Nc4ccc(C)cc4)c(=O)c23)CO1 (configuration not stated)
- cell number change: 52%
- AC50 [2]: 23.1 µM [rising, partial curve, poor fit]
- AC50 [1]: 23.1 µM [rising, partial curve]

Compound: COc1cccc(NC(=O)CN(C)C(C)C(=O)N2CCCC2)c1 (configuration not stated)
- cell number change: -50.9%
- AC50 [2]: 0.92 µM [falling, full curve]
- AC50 [1]: 0.92 µM [falling, full curve]

Compound: Cc1cc(C)c(O)c(-c2n[nH]c3c2C(c2cccc(O)c2)N(Cc2ccco2)C3=O)c1 (configuration not stated)
- cell number change: -52.3%
- AC50 [2]: 16.4 µM [falling, single point]
- AC50 [1]: 16.4 µM [falling, single point]

Compound: COc1ccc(NC(=O)COc2cccc3c2OC(C)(C)C3)cc1OC
- cell number change: -13.1%
- AC50 [1]: 0.231 µM [rising, full curve, poor fit]

Compound: Cc1ccc(S(=O)(=O)N(C)C)cc1NC(=O)CSc1ncc(C(F)(F)F)cc1Cl
- cell number change: -1.8%
- AC50 [1]: 32.6 µM [falling, partial curve, poor fit]

Compound: COc1c(Br)cc(C(N)=O)cc1OCc1ccccc1
- cell number change: -18.5%
- AC50 [2]: 0.092 µM [falling, full curve, poor fit]
- AC50 [1]: 0.0731 µM [rising, full curve, poor fit]

Compound: Cc1cc(=O)n(-c2ccc3ccccc3n2)[nH]1
- AC50 [2]: 0.58 µM [rising, full curve, poor fit]

Compound: CCOc1ccc(S(=O)(=O)Nc2cccc(C(=O)NCC(c3ccccc3)N(C)C)c2)cc1 (configuration not stated)
- cell number change: 112%
- AC50 [2]: 29.1 µM [rising, single point]

Compound: Cc1ccc2c(c1)nc(NCCO)n2C
- cell number change: 0.136%
- AC50 [1]: 0.0058 µM [falling, full curve, poor fit]

Compound: COc1ccc(OC)c(-c2csc(NC(=O)CSc3ccccc3)n2)c1
- cell number change: -0.0814%

Compound: COc1ccc(Br)cc1CN(C)CC(=O)Nc1cccc(S(N)(=O)=O)c1
- AC50 [2]: 0.259 µM [rising, single point]
- AC50 [1]: 6.51 µM [rising, partial curve]

Compound: COc1cccc(CNC(=O)CCCc2c[nH]c3ccccc23)c1
- cell number change: -50.4%
- AC50 [2]: 7.94 µM [falling, partial curve, poor fit]
- AC50 [1]: 8.91 µM [falling, partial curve]

Compound: COc1ccc(-c2nsc(SCC(=O)Nc3cc(C)on3)n2)cc1
- AC50 [1]: 2.59 µM [falling, partial curve]

Compound: CCCOc1ccc(C(CC(=O)O)NS(=O)(=O)c2ccc(NC(C)=O)cc2)cc1 (configuration not stated)
- AC50 [1]: 0.92 µM [rising, full curve]

Compound: O=[N+]([O-])c1cc2c(cc1/C=N/n1c(-c3ccccn3)n[nH]c1=S)OCO2
- cell number change: -13%
- AC50 [2]: 0.731 µM [rising, single point]
- AC50 [1]: 0.13 µM [falling, full curve, poor fit]

Compound: Cc1[nH]c2ccccc2c1CCC(N)=O
- cell number change: 12.2%
- AC50 [2]: 6.51 µM [falling, single point]

Compound: Cn1c(N2CCOCC2)c(/C=N/O)c2ccccc21
- cell number change: 51.1%
- AC50 [2]: 20.6 µM [rising, partial curve]
- AC50 [1]: 5.17 µM [rising, partial curve]

Compound: CC1CCN(C(=O)c2ccccc2NC(=O)c2cccc(S(=O)(=O)N(C)C)c2)CC1
- cell number change: 34.6%
- AC50 [2]: 0.092 µM [rising, full curve, poor fit]

Compound: Cc1ccc(CNc2nc3ccc(C)cc3n3cnnc23)cc1
- cell number change: -7.85%
- AC50 [2]: 0.0092 µM [rising, full curve, poor fit]

Compound: C=CCOc1cccc(CNCc2cccnc2)c1
- cell number change: -0.276%
- AC50 [1]: 3.26 µM [rising, partial curve]

Compound: CCn1c(SCC(=O)Nc2nccs2)nnc1-c1cc2cccc(OC)c2o1
- AC50 [1]: 0.651 µM [falling, full curve]

Compound: COc1cccc(-c2cc(C(F)(F)F)nc(N3CCOCC3)n2)c1
- cell number change: 90.2%
- AC50 [2]: 29.1 µM [rising, partial curve, poor fit]
